# PMC5741637
# B1: FKF1 KELCH domain (aa 283-618) in pGAD (prey) (domain or fragment, UniProt Q9C9W9 283-618)
# chain: ELTTLEAVCWRKFTVGGIVQPSRCNFSACAVGNRLVLFGGEGVNMQPLDDTFVLNLDAECPEWQRVRVTSSPPGRWGHTLSCLNGSWLVVFGGCGRQGLLNDVFVLDLDAKHPTWKEVAGGTPPLPRSWHSSCTIEGSKLVVSGGCTDAGVLLSDTFLLDLTTDKPTWKEIPTSWAPPSRLGHSLSVFGRTKILMFGGLANSGHLKLRSGEAYTIDLEDEEPRWRELECSAFPGVVVPPPRLDHVAVSMPCGRVIIFGGSIAGLHSPSQLFLIDPAEEKPSWRILNVPGKPPKLAWGHSTCVVGGTRVLVLGGHTGEEWILNELHELCLASRQDSD
# Target: COP1 RING domain (aa 1-104) in pGBK (bait) (Arabidopsis thaliana)
# Experiment: two-hybrid; Matchmaker GAL4 system, yeast AH109; COP1 full and partial cDNAs in pGBK as baits, FKF1 full and partial cDNAs in pGAD as prey; yeast cell growth and beta-galactosidase activity (CPRG)
binder,measurement,value
B1,binding,binds

# Results are given in words; binding and its absence hold for the method and conditions named. A result given as binding can be weak or reduced; the word gives no strength.
